From PMC9621213 come the findings set out here.

By UniProt entry, the sequences of proteins in these tests, tags left out. Residues count along the entry.
UniProt K9N7C7, residues 1-193: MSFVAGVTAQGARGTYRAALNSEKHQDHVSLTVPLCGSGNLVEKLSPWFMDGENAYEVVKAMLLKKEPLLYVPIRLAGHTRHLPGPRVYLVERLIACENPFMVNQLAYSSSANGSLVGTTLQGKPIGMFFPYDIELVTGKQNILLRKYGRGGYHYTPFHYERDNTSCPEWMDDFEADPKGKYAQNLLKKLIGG
UniProt Q9UM54: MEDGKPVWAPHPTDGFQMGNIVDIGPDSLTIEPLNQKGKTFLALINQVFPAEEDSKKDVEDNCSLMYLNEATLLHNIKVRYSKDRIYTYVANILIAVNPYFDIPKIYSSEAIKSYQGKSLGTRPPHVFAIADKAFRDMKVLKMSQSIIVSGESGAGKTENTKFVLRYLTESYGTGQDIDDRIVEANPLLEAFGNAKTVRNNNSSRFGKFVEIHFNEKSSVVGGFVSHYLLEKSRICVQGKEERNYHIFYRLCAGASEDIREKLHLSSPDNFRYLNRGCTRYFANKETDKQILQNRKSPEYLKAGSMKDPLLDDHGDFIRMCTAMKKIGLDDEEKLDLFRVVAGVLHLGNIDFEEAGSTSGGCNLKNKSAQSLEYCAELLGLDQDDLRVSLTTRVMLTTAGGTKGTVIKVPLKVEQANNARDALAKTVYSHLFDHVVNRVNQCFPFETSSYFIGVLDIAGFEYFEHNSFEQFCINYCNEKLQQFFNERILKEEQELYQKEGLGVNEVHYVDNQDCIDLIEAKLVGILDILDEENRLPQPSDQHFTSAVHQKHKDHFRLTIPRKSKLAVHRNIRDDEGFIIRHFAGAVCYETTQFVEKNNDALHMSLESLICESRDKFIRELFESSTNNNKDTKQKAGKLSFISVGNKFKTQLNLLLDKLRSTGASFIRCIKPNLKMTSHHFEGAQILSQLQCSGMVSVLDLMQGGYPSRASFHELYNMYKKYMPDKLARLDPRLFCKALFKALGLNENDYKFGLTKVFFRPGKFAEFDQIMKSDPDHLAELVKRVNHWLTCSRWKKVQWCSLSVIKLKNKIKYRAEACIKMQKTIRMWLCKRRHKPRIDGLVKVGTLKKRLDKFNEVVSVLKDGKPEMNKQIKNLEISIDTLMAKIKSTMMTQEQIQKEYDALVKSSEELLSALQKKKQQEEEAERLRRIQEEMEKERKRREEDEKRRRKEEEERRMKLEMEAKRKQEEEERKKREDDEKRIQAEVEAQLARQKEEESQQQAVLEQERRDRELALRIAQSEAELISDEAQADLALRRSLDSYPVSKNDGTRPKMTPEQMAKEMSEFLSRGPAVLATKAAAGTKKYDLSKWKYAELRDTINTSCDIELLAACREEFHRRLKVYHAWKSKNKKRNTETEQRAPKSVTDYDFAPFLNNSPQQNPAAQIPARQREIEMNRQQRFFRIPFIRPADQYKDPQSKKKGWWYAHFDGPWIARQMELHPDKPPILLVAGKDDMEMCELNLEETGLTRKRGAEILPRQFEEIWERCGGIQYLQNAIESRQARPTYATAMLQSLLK

Results are given in words; binding and its absence hold for the method and conditions named. In cells and extracts the contact can be indirect. These calls come from enrichment with a bait or labelling near it, and not all partners need be listed.

The assay addresses MERS-CoV non-structural protein 1 (nsp1) (MERS-CoV) (UniProt K9N7C7). Nature of the assay: affinity purification with mass spectrometry.

On to Myosin VI (from UniProt Q9UM54 1-1294), for which the binding entry is “binds”.
